This test relates to P388 leukemia ip, CD2F1 mice, survival T/C. As to the kind of experiment: NCI In Vivo Anticancer Drug Screen. Data for tumor model P388 Leukemia (intraperitoneal) in CD2F1 (CDF1) mice. To be noted: T/C endpoint: median survival time, higher T/C = longer survival.
The mark [1] stands for this setting: dose: 400.0 mg/kg/injection, schedule: Q04DX003 (ip), vehicle: saline with Tween-80.
Where [2] appears, read: dose: 120.0 mg/kg/injection, schedule: Q01DX005 (ip), vehicle: saline with Tween-80.
[3] abbreviates: dose: 240.0 mg/kg/injection, schedule: Q01DX005 (ip), vehicle: saline with Tween-80.
[4] abbreviates: dose: 200.0 mg/kg/injection, schedule: Q01DX009 (ip), vehicle: saline.
The mark [5] stands for this setting: dose: 25.0 mg/kg/injection, schedule: Q01DX009 (ip), vehicle: saline.
[6] abbreviates: dose: 6.25 mg/kg/injection, schedule: Q01DX005 (ip), vehicle: saline with Tween-80.
Setting [7] is: dose: 60.0 mg/kg/injection, schedule: Q01DX005 (ip), vehicle: saline with Tween-80.

We go through 18 compounds from PubChem BioAssay AID330 (DTP/NCI, 2004).

The list is a part of this screen's results and no random one: it gathers tests that were run many times, whatever their T/C, doses with no T/C, and many T/C values between a quarter and a half above the control. Further doses and runs are listed elsewhere. T/C: endpoint of the treated group in % of that of the vehicle group. Some doses have a count of surviving animals in place of a T/C: the source holds a T/C of zero for them, seemingly a mark for toxic or unscored doses. Some survivor counts are full or nearly so, which does not show that the dose was tolerated: survival well below the control is almost never listed, so the zero probably covers shortened survival too. Survivors were counted at the toxicity check, usually on the fifth day, unless a day is given; later deaths do not show. Schedules are NCI's codes, read here as Q, the interval in days (D) or hours (H), X, the number of doses. Some structures stand for samples that the source files as different forms (salt, stereo form or complex); doses refer to the form tested. Marks such as (2×) count equal records among those shown. Some doses were run more than once; the values are given in rising order. Where survival is the endpoint, this PubChem deposit counts one and a half times the control or more as active, and values a quarter to a half above the control carry no call in these data; other NCI protocols may use other cut-offs. Some T/C values carry the count of animals alive at the toxicity check (mostly the fifth day); where none is given, no animal had died by that day.

For the compound `CC1(C)O[C@H]2CC(=O)OC[C@]23[C@H]2CC[C@@]4(C)C(c5ccoc5)OC(=O)[C@H]5O[C@]54[C@]2(C)[C@@H](OC(=O)CCl)C[C@@H]13` (some centres not stated), the survivor count is 4 of 6 (dose: 2.0 mg/kg/injection, schedule: Q01DX009 (ip), vehicle: saline + alcohol); 0 of 6 (dose: 4.0 mg/kg/injection, schedule: Q01DX009 (ip), vehicle: saline + alcohol); 0 of 6 (dose: 8.0 mg/kg/injection, schedule: Q01DX009 (ip), vehicle: saline + alcohol).
As to `[O-]/[N+](=C\c1ccccc1)c1ccccc1`, the survivor count under setting [1] is 4 of 6.
For the compound `Nc1ncnc2c1c(C(=O)O)cn2C1OC(CO)C(O)C1O` (configuration not stated), the T/C is, setting by setting: (dose: 25.0 mg/kg/injection, schedule: Q01DX009 (ip), vehicle: saline with Tween-80) 136 % of control; (dose: 50.0 mg/kg/injection, schedule: Q04DX003 (ip), vehicle: saline with Tween-80) 125 % of control; (dose: 100.0 mg/kg/injection, schedule: Q04DX003 (ip), vehicle: saline with Tween-80) 125 and 135 % of control. The survivor count runs as follows: (dose: 200.0 mg/kg/injection, schedule: Q04DX003 (ip), vehicle: saline with Tween-80) 3 of 6; under setting [1], 0 of 6.
In the case of `CC1CN=C(Cc2ccc(NC(=O)c3ccc(C(=O)Nc4ccc(CC5=NCC(C)N5)cc4)cc3)cc2)N1` (configuration not stated), the survivor count by setting is: (dose: 25.0 mg/kg/injection, schedule: Q01DX005 (ip), vehicle: saline) 0 of 6; (dose: 50.0 mg/kg/injection, schedule: Q01DX005 (ip), vehicle: saline) 0 of 6; (dose: 100.0 mg/kg/injection, schedule: Q01DX005 (ip), vehicle: saline) 0 of 6; (dose: 200.0 mg/kg/injection, schedule: Q01DX005 (ip), vehicle: saline) 0 of 6.
For `c1cc(OCC2CO2)ccc1OCC1CO1` (configuration not stated), the survivor count runs as follows: (dose: 200.0 mg/kg/injection, schedule: Q01DX009 (ip), vehicle: saline with Tween-80) 4 of 6; (dose: 400.0 mg/kg/injection, schedule: Q01DX009 (ip), vehicle: saline with Tween-80) 1 of 6. In addition, the T/C by setting is: (dose: 400.0 mg/kg/injection, schedule: Q04DX003 (ip), vehicle: saline sonified) 136 % of control; under setting [1], 127 % of control.
In the case of `COc1ccc(C(c2c(O)c3ccccc3oc2=O)c2c(O)c3ccccc3oc2=O)cc1`, the survivor count reads like this: under setting [2], 5 of 6; under setting [3], 3 of 5.
Turning to `COc1cc2ccc3c(c2cc1OC)CNCC3`, under setting [4], the survivor count is 3 of 6.
With `Cc1ccc2nc3ccccc3c(SCCCCCCSc3c4ccccc4nc4ccc(C)cc34)c2c1`, the survivor count is listed as 6 of 6 (dose: 60.0 mg/kg/injection, schedule: Q01DX005 (ip), vehicle: Klucel (hydroxypropylcellulose) (HPC)); 6 of 6 (dose: 120.0 mg/kg/injection, schedule: Q01DX005 (ip), vehicle: Klucel (hydroxypropylcellulose) (HPC)); 6 of 6 under setting [3].
As to `NS(=O)(=O)c1ccc(NC(=O)CCl)cc1`, the survivor count is 2 of 6 (dose: 100.0 mg/kg/injection, schedule: Q01DX009 (ip), vehicle: Klucel (hydroxypropylcellulose) (HPC)) and 0 of 6 (dose: 200.0 mg/kg/injection, schedule: Q01DX009 (ip), vehicle: Klucel (hydroxypropylcellulose) (HPC)).
With `COc1cc2c(cc1OC)-c1c(C)c3ccc(OC)c(NCCO)c3c[n+]1CC2`, the survivor count is, setting by setting: (dose: 200.0 mg/kg/injection, schedule: Q04DX003 (ip), vehicle: water) 5 of 6; (dose: 400.0 mg/kg/injection, schedule: Q04DX003 (ip), vehicle: water) 0 of 6.
`CN1CCC(CC2CCCCN2)CC1` (configuration not stated): the survivor count (dose: 100.0 mg/kg/injection, schedule: Q01DX009 (ip), vehicle: distilled water + Tween-80) is on record as 3 of 6 and the survivor count (dose: 200.0 mg/kg/injection, schedule: Q01DX009 (ip), vehicle: distilled water + Tween-80) was 0 of 6.
As for `COc1cc2c(cc1O)N=C[C@@H]1CCC(O)N1C2=O` (mixture of isomers), the T/C was 134 % of control (dose: 1.0 mg/kg/injection, schedule: Q01DX009 (ip), vehicle: saline); 134 % of control (dose: 2.0 mg/kg/injection, schedule: Q01DX009 (ip), vehicle: saline); 147 % of control (dose: 4.0 mg/kg/injection, schedule: Q01DX009 (ip), vehicle: saline). Also, the survivor count is 5 of 6 (dose: 8.0 mg/kg/injection, schedule: Q01DX009 (ip), vehicle: saline); 0 of 6 (dose: 16.0 mg/kg/injection, schedule: Q01DX009 (ip), vehicle: saline); 0 of 6 (dose: 32.0 mg/kg/injection, schedule: Q01DX009 (ip), vehicle: saline).
As to `COc1cccc2c1C(=O)c1c(O)c3c(c(O)c1C2=O)C[C@@](O)(/C(C)=N/N1CCCCC1)C[C@@H]3OC1CC(N)C(O)C(C)O1` (some centres not stated), the T/C is, setting by setting: (dose: 0.62 mg/kg/injection, schedule: Q01DX009 (ip), vehicle: saline) 139 and 145 % of control; (dose: 1.25 mg/kg/injection, schedule: Q01DX009 (ip), vehicle: saline) 129 % of control; (dose: 5.0 mg/kg/injection, schedule: Q01DX009 (ip), vehicle: saline) 136 % of control. For the same compound, under “dose: 2.5 mg/kg/injection, schedule: Q01DX009 (ip), vehicle: saline”, the survivor count is given as 3 of 6.
On to `CS(=O)(=O)OCC(COS(C)(=O)=O)(COS(C)(=O)=O)COS(C)(=O)=O`, for which the survivor count (dose: 400.0 mg/kg/injection, schedule: Q01DX009 (ip), vehicle: Klucel (hydroxypropylcellulose) (HPC)) is listed as 6 of 6.
With `C[N+](C)(C)/N=C(/c1ccccc1)C1CCCCC1`, the survivor count runs as follows: (dose: 100.0 mg/kg/injection, schedule: Q01DX001 (ip), vehicle: Klucel (hydroxypropylcellulose) (HPC)) 0 of 6; (dose: 200.0 mg/kg/injection, schedule: Q01DX001 (ip), vehicle: Klucel (hydroxypropylcellulose) (HPC)) 0 of 6; (dose: 400.0 mg/kg/injection, schedule: Q01DX001 (ip), vehicle: Klucel (hydroxypropylcellulose) (HPC)) 0 of 6.
In the case of `Cc1ccc(C(=O)C(CN(C)C)CN(C)C)cc1`, the T/C reads like this: (dose: 6.25 mg/kg/injection, schedule: Q01DX009 (ip), vehicle: saline) 126 % of control; (dose: 12.5 mg/kg/injection, schedule: Q01DX009 (ip), vehicle: saline) 128, 132, 135 % of control; under setting [5], 136 and 139 % of control. Besides, the survivor count under setting [5] is 0 of 6 and 1 of 6; the survivor count (dose: 50.0 mg/kg/injection, schedule: Q01DX009 (ip), vehicle: saline) was 0 of 6 and 1 of 6; the survivor count (dose: 100.0 mg/kg/injection, schedule: Q01DX009 (ip), vehicle: saline) was 0 of 6 (2×); the survivor count under setting [4] was 0 of 6 (2×).
For `CNC(=O)C1OC(n2cnc3c(N)ncnc32)C(O)C1O` (configuration not stated), the T/C reads like this: (dose: 3.13 mg/kg/injection, schedule: Q01DX005 (ip), vehicle: saline with Tween-80) 126 and 128 % of control; under setting [6], 125 [5 of 6 alive] and 129 % of control [5 of 6 alive]. Moreover, the survivor count was 0 of 6 under setting [6]; 0 of 6 (dose: 12.5 mg/kg/injection, schedule: Q01DX005 (ip), vehicle: saline with Tween-80); 0 of 6 (dose: 25.0 mg/kg/injection, schedule: Q01DX005 (ip), vehicle: saline with Tween-80); 0 of 6 (dose: 50.0 mg/kg/injection, schedule: Q01DX005 (ip), vehicle: saline with Tween-80); 0 of 6 (dose: 100.0 mg/kg/injection, schedule: Q01DX005 (ip), vehicle: saline with Tween-80); 0 of 6 (dose: 200.0 mg/kg/injection, schedule: Q01DX005 (ip), vehicle: saline with Tween-80).
`C[CH2][Sn]([CH2]C)([O]P(=O)(C[Si](C)(C)C)c1ccccc1)[O]P(=O)(C[Si](C)(C)C)c1ccccc1` (configuration not stated): the T/C under setting [7] is 141 % of control [4 of 6 alive]. The survivor count was 3 of 6 under setting [7], 0 of 6 under setting [2] and 0 of 6 under setting [3].
